The source of these data is PMC2278140, “Regulation of the cd38 promoter in human airway smooth muscle cells by TNF-α and dexamethasone”.

Sequences of proteins named here, by UniProt entry; tags and fusion partners are left off.
UniProt P01100, whole entry: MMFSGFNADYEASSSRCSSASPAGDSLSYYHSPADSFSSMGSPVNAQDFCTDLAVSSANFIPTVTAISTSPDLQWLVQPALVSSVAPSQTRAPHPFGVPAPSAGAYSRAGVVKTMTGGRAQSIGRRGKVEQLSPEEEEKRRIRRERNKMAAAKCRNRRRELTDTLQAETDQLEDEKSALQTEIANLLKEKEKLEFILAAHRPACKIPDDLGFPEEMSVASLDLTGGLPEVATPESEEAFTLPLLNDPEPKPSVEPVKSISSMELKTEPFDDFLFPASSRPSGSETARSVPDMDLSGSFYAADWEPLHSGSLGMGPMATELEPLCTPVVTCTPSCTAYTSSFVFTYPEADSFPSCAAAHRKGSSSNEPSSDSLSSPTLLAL
UniProt P05412, whole entry: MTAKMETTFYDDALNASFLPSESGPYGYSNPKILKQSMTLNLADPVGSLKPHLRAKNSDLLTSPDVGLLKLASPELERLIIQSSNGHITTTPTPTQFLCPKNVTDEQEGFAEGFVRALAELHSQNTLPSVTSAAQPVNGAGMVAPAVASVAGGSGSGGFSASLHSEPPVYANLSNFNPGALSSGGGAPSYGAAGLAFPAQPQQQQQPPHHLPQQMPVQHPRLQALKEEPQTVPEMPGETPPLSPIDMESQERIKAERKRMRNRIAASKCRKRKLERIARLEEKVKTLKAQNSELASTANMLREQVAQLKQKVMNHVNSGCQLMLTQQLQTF

For at least one entry, the source does not settle the construct or the ends of the probe. For some of these results: No signal at the amounts used counts as a negative. For some of these results: Protein sequences can lack the tags named with them. For some of these results: Results from cells or extracts need not show a direct contact. For some of these results: At least one verdict rests on a figure or table, not on a statement of the authors.

The target in data set [1] is T1, glucocorticoid receptor (GR) (human) (UniProt P04150).
T1 sequence (looked up, limits assumed): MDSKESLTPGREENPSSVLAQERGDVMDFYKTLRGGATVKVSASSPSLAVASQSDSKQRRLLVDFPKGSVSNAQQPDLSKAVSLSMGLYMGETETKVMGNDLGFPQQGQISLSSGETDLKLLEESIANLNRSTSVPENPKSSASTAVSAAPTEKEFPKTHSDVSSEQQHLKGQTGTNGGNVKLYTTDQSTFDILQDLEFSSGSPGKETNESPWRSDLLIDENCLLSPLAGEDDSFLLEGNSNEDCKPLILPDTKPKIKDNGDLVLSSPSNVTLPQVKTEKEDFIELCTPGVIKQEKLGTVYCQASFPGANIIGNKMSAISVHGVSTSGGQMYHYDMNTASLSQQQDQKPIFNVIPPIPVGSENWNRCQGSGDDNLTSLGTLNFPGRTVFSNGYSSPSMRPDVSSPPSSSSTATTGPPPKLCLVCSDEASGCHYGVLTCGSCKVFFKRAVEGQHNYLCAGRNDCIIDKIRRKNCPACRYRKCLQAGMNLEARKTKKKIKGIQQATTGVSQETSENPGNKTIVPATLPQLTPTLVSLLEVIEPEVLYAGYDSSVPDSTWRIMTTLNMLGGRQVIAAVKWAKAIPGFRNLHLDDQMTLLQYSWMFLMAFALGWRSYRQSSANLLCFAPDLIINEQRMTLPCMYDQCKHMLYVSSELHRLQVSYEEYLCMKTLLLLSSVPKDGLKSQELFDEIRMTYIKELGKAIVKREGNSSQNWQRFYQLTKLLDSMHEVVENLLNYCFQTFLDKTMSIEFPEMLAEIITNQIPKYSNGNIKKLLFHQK
The data set is described as follows: competition with a labelled probe. To be noted: excess unlabeled vs labeled GRE consensus; 20% glycerol, 5 mM MgCl2, 2.5 mM EDTA, 2.5 mM DTT, 250 mM NaCl, 50 mM Tris-HCl pH 7.5, 0.25 mg/ml poly(dI-dC), room temperature 30 min; 0.4 pmol probe in 10 μl; commercial protein; label: 32P 5' end.

For data set [2], the target named is c-Fos (AP-1 complex) (human) (UniProt P01100). The data set is described as follows: EMSA supershift. Conditions: anti-c-Fos; 20% glycerol, 5 mM MgCl2, 2.5 mM EDTA, 2.5 mM DTT, 250 mM NaCl, 50 mM Tris-HCl pH 7.5, 0.25 mg/ml poly(dI-dC), room temperature 30 min; 0.4 pmol probe in 10 μl; protein in an extract; label: 32P 5' end. (In EMSA bound probe runs differently from free probe, usually more slowly.)

Data set [3] has the same target. The data set is described as follows: competition with a labelled probe. To be noted: excess unlabeled self vs labeled AP1-4; 20% glycerol, 5 mM MgCl2, 2.5 mM EDTA, 2.5 mM DTT, 250 mM NaCl, 50 mM Tris-HCl pH 7.5, 0.25 mg/ml poly(dI-dC), room temperature 30 min; 0.4 pmol probe in 10 μl; protein in an extract; label: 32P 5' end.
The target of data set [4] is c-Jun (AP-1 complex) (human) (UniProt P05412). The data set is described as follows: competition with a labelled probe. Conditions: excess unlabeled vs labeled AP-1 consensus, 20% glycerol, 5 mM MgCl2, 2.5 mM EDTA, 2.5 mM DTT, 250 mM NaCl, 50 mM Tris-HCl pH 7.5, 0.25 mg/ml poly(dI-dC), room temperature 30 min, 0.4 pmol probe in 10 μl, protein in an extract.
The target is the same in data set [5]. The data set is described as follows: EMSA supershift. To be noted: anti-c-Jun, TNF-α-treated cells; 20% glycerol, 5 mM MgCl2, 2.5 mM EDTA, 2.5 mM DTT, 250 mM NaCl, 50 mM Tris-HCl pH 7.5, 0.25 mg/ml poly(dI-dC), room temperature 30 min; 0.4 pmol probe in 10 μl; protein in an extract; label: 32P 5' end.

With “AAGCACTGCCATGTTCTCACTTATAAGT (double strand) [GRE3]”, the binding result in data set [1] is listed as “no binding”.

“ATCATCTTTGACTCATCTCTTTC (double strand) [AP1-4]”: the binding result in data set [2], in data set [3] and in data set [4] (label: 32P 5' end) was “binds” in each case.

In the case of “CAATTCTTGAATCATGCCTCT (double strand) [AP1-6]”, in data set [4], the binding result was “binds”.

As to “CGCTTGATGACTCAGCCGGAA (double strand) [AP-1 consensus]”, the binding result in data set [5] is “binds”.

As to “GCCATTGTAACTGTTCTCCATCCTTATC (double strand) [GRE4]”, in data set [1], the binding result is reported as “no binding”.
